Test results as given in patent US20140221620A1 (PERSEUS PROTEOMICS, published 2014).
Results are given in words; binding and its absence hold for the method and conditions named. Some results given as binding are weak or reduced against the parent protein; the word gives no strength.

Protein sequences, listed by entry. Tags and fused reporters are not part of them. Lines headed by an entry give the natural chain unless they say otherwise; changes in a name come on top.
UniProt P22223: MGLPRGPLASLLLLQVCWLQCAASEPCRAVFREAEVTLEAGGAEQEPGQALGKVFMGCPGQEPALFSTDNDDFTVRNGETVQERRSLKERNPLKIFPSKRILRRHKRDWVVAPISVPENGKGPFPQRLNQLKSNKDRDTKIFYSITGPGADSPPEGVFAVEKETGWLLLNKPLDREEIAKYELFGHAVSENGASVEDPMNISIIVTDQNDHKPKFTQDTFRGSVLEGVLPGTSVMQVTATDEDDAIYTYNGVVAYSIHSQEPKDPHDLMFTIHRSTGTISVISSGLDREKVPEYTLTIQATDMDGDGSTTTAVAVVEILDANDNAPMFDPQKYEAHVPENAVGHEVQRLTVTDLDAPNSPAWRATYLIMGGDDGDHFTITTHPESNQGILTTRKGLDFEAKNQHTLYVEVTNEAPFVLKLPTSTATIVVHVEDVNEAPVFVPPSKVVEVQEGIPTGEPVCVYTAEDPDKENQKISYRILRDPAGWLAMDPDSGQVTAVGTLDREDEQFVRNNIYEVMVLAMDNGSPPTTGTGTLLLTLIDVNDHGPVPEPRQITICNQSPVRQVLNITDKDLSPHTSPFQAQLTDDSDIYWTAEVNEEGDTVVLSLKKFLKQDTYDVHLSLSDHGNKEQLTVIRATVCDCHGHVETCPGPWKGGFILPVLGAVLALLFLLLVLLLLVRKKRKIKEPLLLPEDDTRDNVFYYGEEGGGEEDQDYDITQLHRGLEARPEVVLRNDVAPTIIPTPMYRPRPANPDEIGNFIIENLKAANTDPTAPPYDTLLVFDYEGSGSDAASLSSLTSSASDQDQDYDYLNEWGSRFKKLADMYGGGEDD

Molecular target: CDH3 protein Fragment 1 (positions 108 to 236 of SEQ ID NO: 38) (human) (UniProt P22223)
Experiment: Western blot, E. coli lysate, reducing gel

B1: mouse antibody PPAT-057-17 (antibody, V domains shown)
VH: QVKLEESGPVLVAPSQSLSITCTVSGFSLTSYGVHWIRHPPGKGLEWLGVIWAGGNTIYNSALMSRLNISKDNSKSQVFLKMNSLQSDDSAMYYCAKPHYGDYAGFYALDHWGQGTSVTVSS
VL: DVQITQSPSYLAASPGETININCRASKRISKYLAWYQEKPGKTNRLLIYSGSTLQSGIPSRFSGSGSGTDFTLTISSLEPEDFAMYYCQQHNEYPWTFGGGTKLEIK
notes: Mouse monoclonal IgG from a hybridoma; kappa L chain primers were used
  binding: binds
